Measured values from PubChem BioAssay AID540276 (National Center for Advancing Translational Sciences (NCATS), 2011).
The whole screen tested about 300,000 compounds, of which about 5,400 (1.8%) were called active. Inconclusive results, whose numbers are uncertain, are shown with a selection of clear calls. Calls come from the whole dose curve; tested in HEK293 cells. Where the call is inconclusive, the potency comes from a doubtful curve fit.
% is set by controls: 0 for no effect and ±100 for the full control effect; potency is the fitted concentration of half-maximal effect.

Assay: qHTS for inhibitors of binding or entry into cells for Marburg Virus
Settings: Marburg virus pseudotyped entry inhibition, cell reporter; activity change, negative = inhibition: at 37.8 µM (top of the series) unless noted
For `Cc1[nH]oc(=O)c1N=Nc1c(Cl)cccc1Cl`, the Potency was inconclusive: 5.62 µM [inhibitor, single point].
For `COC(=O)c1cccc(Nc2c3c(nc4ccccc24)CCC3)c1`, the Potency was inconclusive: 3.16 µM [inhibitor, full curve].
In the case of `O=C(Cc1ccccc1Cl)N1CCOCC1`, the Potency is reported as inconclusive: 3.98 µM [inhibitor, partial curve, poor fit].
For `N#CC(c1ccc(Cl)cc1)c1ccc(Cl)nn1` (centres undefined), the Potency was inconclusive: 35.5 µM [inhibitor, single point].
With `CCc1nnc(NC(=O)CSc2nnc(COc3ccc(C)cc3)n2-c2ccccc2)s1` the “activity change, negative = inhibition” value was inactive: 0.0871%.
With `COc1cc(C(c2oc(CO)cc(=O)c2O)c2oc(CO)cc(=O)c2O)cc(OC)c1OC` the “activity change, negative = inhibition” value was inactive: 8.83%.
For `COC(=O)C(Cc1c[nH]c2ccccc12)NC(=O)c1ccc2nc[nH]c2c1` (centres undefined), the Potency was inconclusive: 2.24 µM [activator, full curve, poor fit].
With `COc1ccc(C(=O)/C=C/Nc2ccc(S(=O)(=O)Nc3onc(C)c3C)cc2)cc1` the Potency was inconclusive: 14.1 µM [activator, single point].
In the case of `CSc1cccc(NC(=O)Nc2ccccc2)c1`, the “activity change, negative = inhibition” value is reported as inactive: 16.2%.
For `CSCCC(=O)N1CCN(CC(=O)N2CCCC2)CC1`, the “activity change, negative = inhibition” value was inactive: -0.175% [at 46.1 µM].
For `O=C(c1cccn2c(=O)c3ccccc3nc12)N1CCC2(CC1)OCCO2`, the Potency was inconclusive: 1.16 µM [inhibitor, single point].
For `CCCn1cnc2c(N)c(C)c(C)cc21`, the Potency was inconclusive: 11.6 µM [activator, partial curve, poor fit].
With `CN1CCN(Cc2nc(Cc3ccccc3)no2)CC1c1ccccc1` (centres undefined) the Potency was inconclusive: 14.1 µM [inhibitor, single point].
In the case of `Cc1ccc(Nc2cc(C)nc3ncnn23)c(C)c1`, the Potency is reported as inconclusive: 0.794 µM [inhibitor, full curve, poor fit].
With `CCN(CC(=O)Nc1ccc(NC(C)=O)cc1)C(=O)CCCOc1ccc(C(C)(C)C)cc1` the Potency was inconclusive: 22.4 µM [inhibitor, single point].
For `COC1=C[C@H](C(=O)NCc2ccccn2)[C@H](C)[C@@H](c2ccccc2)CC1=O`, the Potency was inconclusive: 3.76 µM [activator, single point].
For `Cc1ccccc1OCC(=O)Nc1ccc(OCc2cc(=O)n3ccsc3n2)cc1`, the “activity change, negative = inhibition” value was inactive: 6% [at 46.1 µM].
For `O=C(N/N=C/c1cccc([N+](=O)[O-])c1)C1CC1c1ccccc1` (centres undefined), the Potency was inconclusive: 1.26 µM [activator, single point].
In the case of `O=C(O)c1cc(N/N=C/c2c[nH]c3ccccc23)ccc1Cl`, the “activity change, negative = inhibition” value is reported as inactive: -19%.
With `CC(=O)Nc1cccc(C(=O)/C=C/c2cccs2)c1` the “activity change, negative = inhibition” value was inactive: -8.8%.
For `CSc1ccccc1C(=O)C1CCCN(C(=O)CCN2CCCO2)C1` (centres undefined), the “activity change, negative = inhibition” value was inactive: -2.53% [at 46.1 µM].
For `Cc1c(C#N)c2ncn(Cc3ccccn3)c(=O)c2n1-c1ccccc1`, the Potency was inconclusive: 5.01 µM [activator, partial curve, poor fit].
In the case of `COc1ccc(/C=C2\N=C(SC)SC2=O)cc1OC`, the Potency is reported as inconclusive: 0.112 µM [inhibitor, full curve, poor fit].
With `CCn1c(=O)c2sccc2n(CC(=O)NCCC2=CCCCC2)c1=O` the Potency was inconclusive: 3.98 µM [activator, single point].
In the case of `CN(C)c1ccc(NC(=O)Nc2ccc3snnc3c2)cc1`, the “activity change, negative = inhibition” value is reported as inactive: 10.5%.
For `C/C(=N\NC(=O)Cc1ccccc1)c1cccs1`, the “activity change, negative = inhibition” value was inactive: -0.332%.
For `CCCOc1ccc2nc(NC(=O)OC)[nH]c2c1`, the Potency was inconclusive: 0.651 µM [inhibitor, partial curve, poor fit].
In the case of `CC(C)=CCCC(C)=CCON=C1C[C@@H](O)[C@@H](O)[C@@H]2[C@H]3C(=O)N(Cc4ccc5c(c4)OCO5)C(=O)[C@@H]3CC[C@@H]12`, the “activity change, negative = inhibition” value is reported as inactive: -43.7% [at 14.2 µM].
With `COc1ccc(Cn2c(=O)cc(N)n(-c3ccccc3C)c2=O)cc1` the Potency was inconclusive: 7.08 µM [inhibitor, partial curve, poor fit].
For `O=C(Cc1ccccc1Cl)Nc1cccc(S(=O)(=O)N2CCOCC2)c1`, the Potency was inconclusive: 17.8 µM [activator, single point].
In the case of `COc1ccc(/C=C(/NC(=O)c2ccc(OC)cc2)C(=O)NCCc2c[nH]c3ccccc23)cc1`, the Potency is reported as inconclusive: 35.5 µM [inhibitor, single point].
For `COc1ccccc1/C=C/CN1CCN(Cc2ccc(C)o2)C(CCO)C1` (centres undefined), the Potency was inconclusive: 10 µM [inhibitor, partial curve, poor fit].
With `CC(C)c1nc(SCC(=O)N2CCCc3ccccc32)c2c(=O)n(C)c(=O)n(C)c2n1` the “activity change, negative = inhibition” value was inactive: -5.35%.
For `CC1CCc2nc(/C(C#N)=C/c3cccnc3)sc2C1` (centres undefined), the Potency was inconclusive: 10 µM [inhibitor, single point].
In the case of `O=S(=O)(Nn1cnnc1)c1ccc(F)cc1`, the Potency is reported as inconclusive: 25.1 µM [inhibitor, single point].
In the case of `Cc1cc(C)c(S(=O)(=O)N2CCCCC2CCNC(=O)C(=O)NCCN2CCOCC2)c(C)c1` (centres undefined), the Potency is reported as inconclusive: 3.16 µM [activator, partial curve, poor fit].
In the case of `CCOc1ccc2nc(N3CCC(C(=O)NCCCN4CCOCC4)CC3)sc2c1`, the Potency is reported as inconclusive: 3.16 µM [activator, single point].
For `COc1ccc(C2C(C(=O)c3cc4cccc(OC)c4o3)=C(O)C(=O)N2CCCN(C)C)cc1OC` (centres undefined), the “activity change, negative = inhibition” value was inactive: -4.31%.
In the case of `O=C(Nc1ccc(Br)cc1F)c1cc2nc(-c3ccco3)cc(C(F)(F)Cl)n2n1`, the Potency is reported as inconclusive: 0.562 µM [activator, partial curve, poor fit].
In the case of `S=C(Nc1cccc(Cl)c1)NC1CC2CCCC(C1)N2C1CCCC1` (centres undefined), the Potency is reported as inconclusive: 25.9 µM [inhibitor, single point].
With `Cc1c(Cl)c([N+](=O)[O-])nn1Cc1ccc(C(=O)Nc2ccc(Cl)cn2)o1` the Potency was inconclusive: 7.08 µM [inhibitor, partial curve, poor fit].
In the case of `Cc1ccc(NCC(=O)N/N=C\C(Br)=C\c2ccccc2)cc1`, the “activity change, negative = inhibition” value is reported as inactive: -9.93%.
In the case of `CCCC(=O)Nc1nc(-c2ccccc2)c(CC)s1`, the Potency is reported as inconclusive: 3.16 µM [inhibitor, single point].
In the case of `Cc1onc(-c2ccccc2Cl)c1C(=O)Oc1cc(N)n(S(=O)(=O)c2ccc(F)cc2)n1`, the Potency is reported as inconclusive: 31.6 µM [inhibitor, single point].
